Data as given in PubChem BioAssay AID504764 (Drosophila RNAi Screening Center, 2011)
In all, the deposit lists about 22,000 reagents; this is a random part of those with a known target gene and a result. Over the whole deposit, 403 (1.9%) got an active call. 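Unnormalised raw counts per well; ratio z-scores behind the hit calls and whether each hit raises or lowers signal are not deposited.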 Names joined by + are all predicted targets of the reagent. The record does not give: the amount of reagent.

Purpose: 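Genome-wide screen for regulators of Notch-driven gene expression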 (primary screen)
System: Drosophila Kc167 cells
Reagent: long dsRNA against Drosophila genes
Timing: about 5 days (4 days dsRNA, then 24 h after transfection)
Conditions: transfection of constitutively active membrane-tethered Notch lacking the extracellular domain, read 24 h later
Measured: 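Light from a Notch-responsive E(spl)m3 luciferase reporter under active Notch, with control-promoter and no-Notch reporter wells to normalise; raw counts from paired wells a and b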
Scale: induced reporter light, run 1, well a and induced reporter light, run 1, well b: higher = more light from the Notch target reporter with active Notch; control promoter light, run 1, well a and control promoter light, run 1, well b: higher = more light from the viral control promoter (cell number, transfection, viability); uninduced reporter light, run 1, well a: higher = more light from the Notch target reporter without active Notch
Active means: 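Wells with low control signal or poorly matching duplicates excluded; duplicates averaged; per source plate, z beyond ±2 for induced/control log2 ratio or beyond ±1.8 for induced/uninduced marks a hit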
Meaning of the calls: active = modifier hit (raised or lowered Notch signal); inactive = not a hit

| gene | induced reporter light, run 1, well a | induced reporter light, run 1, well b | control promoter light, run 1, well a | control promoter light, run 1, well b | uninduced reporter light, run 1, well a | outcome |
| --- | --- | --- | --- | --- | --- | --- |
| CG12910 | 2.06e5 | 1.83e5 | 1.66e5 | 1.50e5 | 16815 | inactive |
| Sur-8 | 1.62e5 | 1.97e5 | 1.74e5 | 2.06e5 | 16400 | inactive |
| CG8927 | 1.78e5 | 2.13e5 | 1.46e5 | 1.53e5 | 17355 | inactive |
| Acp53C14b | 1.10e5 | 93355 | 1.04e5 | 1.61e5 | 11320 | inactive |
| CG5665 | 1.04e5 | 1.19e5 | 92355 | 1.07e5 | 7045 | inactive |
| Mec2 | 1.26e5 | 1.21e5 | 96975 | 69790 | 9465 | inactive |
| Drsl2 | 1.25e5 | 98520 | 1.48e5 | 1.55e5 | 7530 | inactive |
| Jon99Ciii | 1.28e5 | 99680 | 1.58e5 | 1.44e5 | 8540 | inactive |
| CG7029 | 11692 | 9450 | 8210 | 12000 | 1340 | inactive |
| laf | 1.01e5 | 86595 | 1.42e5 | 1.32e5 | 9190 | inactive |
| Smyd3 | 1.35e5 | 1.41e5 | 2.14e5 | 2.53e5 | 9195 | inactive |
| CG14605 | 61995 | 80260 | 83905 | 62240 | 4715 | inactive |
| CG5399 | 2.47e5 | 2.38e5 | 2.17e5 | 2.48e5 | 20670 | inactive |
| sphinx2 | – | – | – | – | – | inactive |
| CG30287 | 1.08e5 | 99805 | 1.00e5 | 1.10e5 | 8730 | inactive |
| CG4741 | 21120 | 19762 | 20705 | 24255 | 1720 | inactive |
| PGRP-SC1b | 2.21e5 | 2.14e5 | 2.26e5 | 2.14e5 | 17780 | inactive |
| CG17931 + CG42446 | 2.02e5 | 2.57e5 | 1.68e5 | 1.81e5 | 16845 | inactive |
| Tengl4 | 76765 | 85165 | 70935 | 69305 | 4065 | inactive |
| Z600 | 2.23e5 | 1.45e5 | 2.02e5 | 1.92e5 | 12070 | inactive |
| CG3061 | 2.11e5 | 2.30e5 | 2.17e5 | 2.33e5 | 15478 | inactive |
| Gpo2 | 1.88e5 | 1.80e5 | 2.54e5 | 2.41e5 | 14575 | inactive |
| CG17477 | 1.73e5 | 2.04e5 | 1.87e5 | 1.88e5 | 13555 | inactive |
| CR32011 + CR32010 + PlexB + 1 more | – | – | – | – | – | inactive |
| CG9259 | 64725 | 29920 | 36545 | 57410 | 1800 | inactive |
| TMEM216 + CG11760 | 1.42e5 | 1.62e5 | 1.20e5 | 1.27e5 | 13175 | inactive |
| CG14711 + Zaf1 | 40200 | 51635 | 74505 | 41835 | 2995 | inactive |
| CG30109 + CG30108 | 90755 | 1.09e5 | 1.21e5 | 1.21e5 | 8685 | inactive |
| CG31125 | 1.76e5 | 1.31e5 | 1.48e5 | 1.52e5 | 14010 | inactive |
| CG6983 | 85845 | 77515 | 68830 | 24805 | 9895 | inactive |
| Cpr76Ba | 1.21e5 | 93655 | 1.05e5 | 97430 | 8530 | inactive |
| Drsl1 | – | – | – | – | – | inactive |
| l(2)k05911 | 1.69e5 | 1.69e5 | 2.59e5 | 2.76e5 | 13975 | inactive |
| Ack-like | 1.46e5 | 1.57e5 | 1.52e5 | 1.40e5 | 13120 | inactive |

4 entries from above, reformatted:
CG14605 → induced reporter light, run 1, well a = 61995; induced reporter light, run 1, well b = 80260; control promoter light, run 1, well a = 83905; control promoter light, run 1, well b = 62240; uninduced reporter light, run 1, well a = 4715; outcome = inactive
CG5399 → induced reporter light, run 1, well a = 2.47e5; induced reporter light, run 1, well b = 2.38e5; control promoter light, run 1, well a = 2.17e5; control promoter light, run 1, well b = 2.48e5; uninduced reporter light, run 1, well a = 20670; outcome = inactive
sphinx2 → outcome = inactive
CG30287 → induced reporter light, run 1, well a = 1.08e5; induced reporter light, run 1, well b = 99805; control promoter light, run 1, well a = 1.00e5; control promoter light, run 1, well b = 1.10e5; uninduced reporter light, run 1, well a = 8730; outcome = inactive
